The values that follow come from article doi:10.1101/2021.11.29.470412.

The target of assay [1] is Vrl1-3HA (overexpressed) (S. cerevisiae). Kind of assay: co-IP.
The target of assay [2] is Vrl1^D373A-Envy (S. cerevisiae). Briefly: co-IP.

Results are given in words; binding and its absence hold for the method and conditions named. In cells and extracts the contact can be indirect. A result given as binding can be weak or reduced; the word gives no strength.

B1: Snx4 (co-IP with Vrl1-3HA, Figure 3C) (protein, UniProt P47057 1-423)
chain: MTDKGKNDLTSKAKDKARGNPEKPPYWFEIIVSDPQKRTGDPGSSSGYVSYQISTKTNNTSFYDNRGDPESIIVVHRRYSDLLLLHDILLNRFPTCIIPPLPDKKVFQYIAGDRFSQRFTQKRCHSLQNFLRRVSLHPDLSQSKVFKTFLVSKDWESHRKVLQDSLQPNKDEVTDAFMNAFKTVHKQNEEFTEIREKSDKLDRTVTKIDKLFHKVVKKNDSMSEDYTKLGSNLQELQELVTGENEELAAKLKIFNEGVTQLSYGLQDLTKYLDYEYIVDLKDLEHYIDSMRQLIKLKDQKQIDYEELSDYLTRSIKEKNNLISGYGGSNFFANKLEELAGINQEASRREKINKLEGKITSLTGELENAKKVADGFEQECLKEIDHFESVKTAEIKKSLGSLADHHIEFYERILEAWEKVDDSL
Take B1: in assay [1], the binding result was “no binding”.

B2: Snx41 (co-IP with Vrl1-3HA, Figure 3C) (protein, UniProt Q04053 1-625)
chain: MDYNIFEAVHEQQSSTSDMDLSEEDNNPFVGTHHLYASGIGTTIGEARPENENSPPSSSSLPSSPAHSSSAGSSRASTSSSTSSHAVVEADAETEPFVSLSMSTTATISKFTPHDMNGTQQIQIIDAGDFKDPWGKHAIGYVILYENNKIIRRYSEFHSLRQSLTRLLPTIIIPPIPSKHSLLKYIWSPINAANDSKIISTRKKMLNSFLSNCLNIQEISNDIVFQKFLNPEFNWKDVLSSSPIIILPLNNLLAPPLSPTKPSPLHSILPIPSNSSLRNYNSIWQQHITVKSHNEISNLPTEILQNESQFTHIENLFQNYKRIITHLLKNIRSNKSHFHSLSTYFAELGAYYNAFSLENDITMPNSLRESENNSNNPMMEIISHIEKTGHSFDVIYISSEILIEKYTSILEDPINELLQFLNESFKVLNFKKLKFLQFKILERLIIEKETKLSSLTEIENQLQKINESLTRSTILTDENYKDTKAADLTFVKKDVRSLSKSSSNSSSSGHQNEIHIGASKLNYKTSTPTMNLNKLEIKQLTEQERSKQIKQLNQDLSKLKDCLSICISDMLEINNSSYNSLMHTYNHINLTIGKILKLFAASFKAWIKECLKNWKLAKLQIDEAL
As to B2, in assay [1], the binding result is recorded as “no binding”.

B3: Atg20 (co-IP with Vrl1-3HA, Figure 3C) (protein, UniProt Q07528 1-640)
chain: MSDLNDVQENAKLNSETRNTGKAEPPHGTTEYVAEAEISKNGVGSPKKSPKKGKVGKGDNNKVETELVHTALLEKDNPFMEEGPTGFTKSALLEIPGMRSHNLKNPNEDYEDDSEGLLPLNQESNAETCRTSLSGSINSMNGETSASEEPSVSNRKKSARIHILEAKRVSEGQGRAYIAYVIQFENSTVQRRYSDFESLRSILIRLFPMTLIPPIPEKQSIKNYGKSITGSSSKYLLPSEGSGSVDLSLSVIHASVNNSDEKLIRHRIRMLTEFLNKLLTNEEITKTSIITDFLDPNNHNWHEFVNSSSTFSSLPKSILQCNPLDPTNTTRIHAMLPIPGSSSQLLLNKESNDKKMDKERSKSFTNIEQDYKQYENLLDNGIYKYNRRTTKTYHDLKSDYNEIGEVFAQFAHEQAQVGELAEQLSYLSNAFSGSSISLEKLVGRLYYNINEPLNESVHMATSARELIKYRKLKYLQNEMIKKSLNSKRAQLEKLEAQNNEYKDVDKIIDNEMSKSHTINLERPNNNTGSGGKSYGGKLFNGFNKLASMVKDSVKYQETDPHTASINLKKEIEQLSESLEVTENDLEVISKVIKNDQLPKFSKEREVDLSEILKHYSRYMRNYARQNLEIWKEVKRHQDFA
Take B3: the binding entry in assay [1] is reported as “no binding”.

B4: Mvp1 (co-IP with Vrl1-3HA, Figure 3C) (protein, UniProt P40959 1-511)
chain: MDNYEGSDPWNTSSNAWTKDDDHVVSTTNSEPSLNGISGEFNTLNFSTPLDTNEEDTGFLPTNDVLEESIWDDSRNPLGATGMSQTPNIAANETVIDKNDARDQNIEESEADLLDWTNNVRKTYRPLDADIIIIEEIPEREGLLFKHANYLVKHLIALPSTSPSEERTVVRRYSDFLWLREILLKRYPFRMIPELPPKRIGSQNADQLFLKKRRIGLSRFINLVMKHPKLSNDDLVLTFLTVRTDLTSWRKQATYDTSNEFADKKISQEFMKMWKKEFAEQWNQAASCIDTSMELWYRITLLLERHEKRIMQMVHERNFFETLVDNFSEVTPKLYPVQQNDTILDINNNLSIIKKHLETTSSICKQETEEISGTLSPKFKIFTDILLSLRSLFERYKIMAANNVVELQRHVELNKEKLESMKGKPDVSGAEYDRIKKIIQKDRRSIIEQSNRAWLIRQCILEEFTIFQETQFLITRAFQDWAKLNSNHAGLKLNEWEKLVTSIMDMPISRE
For B4, the binding entry in assay [1] is recorded as “no binding”.

B5: Vin1 (co-IP with overexpressed Vrl1-3HA, Figure 3C) (protein, UniProt P36158 1-585)
chain: MENDKASHASPSIGVNEFVVQGEISIDDSERSVKSVSVSISDDEDSKTDVQDNMATPSTRSKFQTDLAIDNRLLEKDPKYKKLFTEKRRRRRPESCINLMTKGKGTGQKDNINDQIFSLRILPGSDLNSLKDSLWIIKISTQPDVEKTIARAFSDFYWLYHQLQNNHWGKTIPPPTRSNILVEKDEFAINHLFMIRNNEKYDPIFNFKPEYIISLQLMAMIKHIFNDKVLRLDSNFIDFISWDDDLPESLQIVVDDSTFTGDKILMTSSQFRELKEFHKQSKKVESITNSHASLIPVTELTEIYISPTKLFSRKDYQRLFQPQSTDNTFNNNDPLIQEWIPKSKTLFTSLSFGSSAPTYQEASTEIQACHDWVSISKEQWKQLLYHVLQYIVDEAVKVNSVINEFTECLKQISLDEVIRANSELFLKFSKLNESFLKKFKGASRQDILKLIILFDENVRFCESFESILNQRLKLGKILSIIEVDLDKKKNFLDKLSPGNNNSNNEDLKIRTAEDEYRIVLKRYNRVKQSWEKIMEDILNERKEFEKREAAEVNSCLKSIRDLNMDEKKHYLQLWQDFVPDEHISQ
As to B5, in assay [1], the binding result was “binds”.

B6: Vin1-3HA (protein, UniProt P36158 1-585)
chain: B5 chain
Regarding B6, the binding result in assay [2] is “binds”.

B7: Vps5 (co-IP with Vrl1, Figures 3C and 3D) (protein, UniProt Q92331 1-675)
chain: MDYEDNLEAPVWDELNHEGDKTQSLVSNSIESIGQISTNEERKDNELLETTASFADKIDLDSAPEWKDPGLSVAGNPQLEEHDNSKADDLINSLAPEQDPIADLKNSTTQFIATRESGGALFTGNANSPLVFDDTIYDANTSPNTSKSISGRRSGKPRILFDSARAQRNSKRNHSLKAKRTTASDDTIKTPFTDPLKKAEKENEFVEEPLDDRNERRENNEGKFTASVEKNILEQVDRPLYNLPQTGANISSPAEVEENSEKFGKTKIGSKVPPTEKAVAFKVEVKDPVKVGELTSIHVEYTVISESSLLELKYAQVSRRYRDFRWLYRQLQNNHWGKVIPPPPEKQSVGSFKENFIENRRFQMESMLKKICQDPVLQKDKDFLLFLTSDDFSSESKKRAFLTGSGAINDSNDLSEVRISEIQLLGAEDAAEVLKNGGIDAESHKGFMSISFSSLPKYNEADEFFIEKKQKIDELEDNLKKLSKSLEMVDTSRNTLAASTEEFSSMVETLASLNVSEPNSELLNNFADVHKSIKSSLERSSLQETLTMGVMLDDYIRSLASVKAIFNQRSKLGYFLVVIENDMNKKHSQLGKLGQNIHSEKFREMRKEFQTLERRYNLTKKQWQAVGDKIKDEFQGFSTDKIREFRNGMEISLEAAIESQKECIELWETFYQTNL
As for B7, the binding result in assay [1] is recorded as “no binding”.

B8: Vps17 (co-IP with Vrl1-3HA, Figure 3C) (protein, UniProt P32913 1-551)
chain: MTSAVPYDPYDDLDNNPFAEPQEEDSEPAATTTDGSSSMSEERVGTEQTAASVQDNGTANNIQNGLGEEGNATRSKTSNEHNENQQPSQPSERVILPERSDEKKKYTLLAKVTGLERFGSATGKKENPTIIFDCSTNLPTFRKQQYKNVKKSYEEFHQLFKYLNVAIQESFVPTLPSAYTTFGINSEEDRMKVTRNFQLWFNRLSQDPLIIRNEEVAFFIESDFNTYTPINKSKSLASGLKRKTLKQLAPPYDEITELAEFRPLVKSIYVVSQSLQEKLLRVSRNRKMMVQEENAFGQDFVNLDEHNKLYRRYGKILTAVGDIDSIIATMDMATLYDGLEWIVRDAYAVKEALTNRHFIMRNLVQAQQNSKAKQEQARRFRSRRDINPMKIDEALRQLKAAAKNEQVLTLKLQRITSNMIIERKQWISWYEEWIRSSIKEFTLRKIEYERKKLTLLERVRSDIRKADENGGLSRLGRHAVSNNNSDTSQTLKGDSWTGESNRKSQIPINKIAHTEFDDELFTEDDGYNSQDSDTTSLNARHAASLLGMSTK
For B8, the binding entry in assay [1] was “no binding”.
